Here are results for 22 compounds from the supplement of paper PMC7858590.

Structures are written as SMILES. ± gives the standard deviation of the averaged measurements. This is one part of the list. Repeats in this data set agree poorly, so a single value says little.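 M-CSF-grown macrophages from blood monocytes pooled across four healthy donors, in an M1-like state, received compounds that had driven resting macrophages M2-like in a first screen. Each Z-score t-tests eccentricity of ~1000 cells per well against same-row DMSO wells. Compounds passing the +6 M2 cutoff, set by standard cytokine controls, count as reprogramming. M1 cutoff: −4.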 Residues, ends and D or L forms follow the SMILES beside them. *: point of attachment. Cbz = O=C(OCc1ccccc1)*

The test system of this experiment is human monocyte-derived macrophages (polarized). Briefly: cell shape (eccentricity) Z-score vs DMSO control; macrophage state: M1-polarized (IFNg + TNFa), cytokines removed before treatment; higher = more elongated, M2-like morphology. To be noted: 24 h; 5 µM.
As to `C[C@@H](N)[C@H]1CC[C@H](C(=O)Nc2ccncc2)CC1`, the “cell shape (Z-score)” value was determined as 8.34. Take `COc1cc(OC)c(/C=C/S(=O)(=O)Cc2ccc(OC)c(NCC(=O)O)c2)c(OC)c1`: the “cell shape (Z-score)” value is -9.85 ± 4.4.

On to `COc1ccc2c(c1OC)CN(C)CCc1cc3c(cc1C(=O)C2)OCO3`, for which the “cell shape (Z-score)” value is 4.16 ± 6.4.

As for `O=C(Nc1ccc(OC(F)(F)F)cc1)c1sccc1NCc1ccnc2ccccc12`, the “cell shape (Z-score)” value was -3.65 ± 2.8. The figure for `N#CC[C@H](C1CCCC1)n1cc(-c2ncnc3[nH]ccc23)cn1` is 0.241 ± 1.8. Consider `CC(C)C[C@@H](C=O)NC(=O)[C@H](CC(C)C)NC(=O)[C@H](CC(C)C)NC(=O)OCc1ccccc1` (Cbz-Leu-Leu-Leu-aldehyde), for which the “cell shape (Z-score)” value is -3.95 ± 3.8. Turning to `O=C(NCCN1CCCCC1)c1ccc(I)cc1`, the “cell shape (Z-score)” value is 0.9 ± 1.9.

`C=C1C(=O)O[C@H]2C3=C(C)C[C@H](OC(C)=O)C[C@]3(C)CC[C@@H]12`: the “cell shape (Z-score)” value amounted to 1.79 ± 7.5. As to `O=S(=O)(c1cccc2cnccc12)N1CCCNCC1`, the “cell shape (Z-score)” value was found to be 3.35 ± 5.1. Under `NC(=O)Nc1sc(-c2ccc(F)cc2)cc1C(N)=O` stands -4.42 ± 2.8; under `CCOC(=O)N[C@@H]1CC[C@@H]2[C@@H](C1)C[C@H]1C(=O)O[C@H](C)[C@H]1[C@H]2/C=C/c1ccc(-c2cccc(F)c2)cn1`, 2.42 ± 2.1. As to `CC[C@]12CCCN3CCc4c(n(c5ccccc45)[C@@](O)(C(=O)OC)C1)[C@@H]32`, the “cell shape (Z-score)” value was 0.649 ± 3.7. `CCCCCCCCCCC(C)(C)C(=O)Nc1c(OC)cc(OC)cc1OC`: the “cell shape (Z-score)” value is -6.45 ± 8.1.

On to `Cc1onc(-c2ccccc2)c1-c1ccc(S(N)(=O)=O)cc1`, for which the “cell shape (Z-score)” value was determined as 2.54 ± 1.5.

For `CN(C)C(=O)n1nnnc1Cc1ccc(-c2ccccc2)cc1`, the “cell shape (Z-score)” value stood at 7.73 ± 8.2.

On to `c1ccc2c(Oc3nc(Nc4ccc(N5CCOCC5)cc4)c4ncn(C5CCCCC5)c4n3)cccc2c1`, for which the “cell shape (Z-score)” value is 5.22. On to `COc1cc2ncn(-c3cc(OCc4ccccc4C(F)(F)F)c(C(N)=O)s3)c2cc1OC`, for which the “cell shape (Z-score)” value came to 6.31 ± 3.1. For `COc1ccc2oc(-c3ccccc3OC)cc(=O)c2c1`, the “cell shape (Z-score)” value came out at 6.44. `COCc1c(C(C)C)nc(C(C)C)c(/C=C/[C@@H](O)C[C@@H](O)CC(=O)O)c1-c1ccc(F)cc1`: the “cell shape (Z-score)” value was 0.161 ± 6. For the compound `N#Cc1ccc(COC[C@H]2O[C@@H](n3c(NCc4ccc(Cl)c(Cl)c4)nc4c(N)ncnc43)[C@H](O)[C@@H]2O)cc1`, the “cell shape (Z-score)” value is 0.389 ± 5.9. As for `Nc1nc2c(ncn2COCCO)c(=O)[nH]1`, the “cell shape (Z-score)” value was -1.44 ± 1.1.

In the case of `C/C=C/c1ccc2c(c1)O[C@@H](CN(C)C(=O)c1ccccc1)[C@@H](C)CN([C@@H](C)CO)S2(=O)=O`, the “cell shape (Z-score)” value stood at 4.48 ± 5.8.
